Experimental data: patent US20170036969A1, “NITRIFICATION INHIBITORS” (BASF SE, priority 2014, published 2017)
Some of these results come from one statement about several compounds together.

Test system: nitrification in soil sampled fresh from a field (e.g. Limburgerhof)
Test: Soil nitrification inhibition test (48 well plate, ammonium sulfate + NaClO3, colour reaction read at 540 nm)
Conditions: dose of 10 ppm, dissolved in 1% DMSO, room temperature, up to 72 hrs
Procedure: Soil was sampled fresh from a field (e.g. Limburgerhof), dried and sieved through a 500 μm sieve. Approximately 200 mg of soil were placed into each well of a 48 well plate. Compounds, or DMSO alone, were added at a concentration of 10 ppm, dissolved in 1% DMSO. 6 μmol ammonium sulfate was added per well as well as 4.8 mg NaClO3.
Subsequently, the samples were incubated at room temperature for up to 72 hrs. After the incubation period 64 mg KCl were added and mixed. 25 μl of the supernatant were placed into a fresh plate and 260 μl of a color reaction solution (from Merck Nr 1.11799.0100) were added.
Measurements were taken with a Tecan plate Reader at 540 nm wavelength.
The inhibition in % is calculated by the equation [(a−b)/a]×100, wherein a is the nitrification rate in the presence of the control (which is assumed to be 100%), and b is the nitrification rate in the presence of the tested compound.

## C#CCOc1ccc(OC)cc1 [Compound 73]
  inhibition compared to a control (DMSO only): ≥ 45%

## C#CCOc1cc(NC=O)c(F)cc1Cl [Compound 118]
  inhibition compared to a control (DMSO only): ≥ 45%

## C#CCOc1cc(N)c(F)cc1Cl [Compound 77]
  inhibition compared to a control (DMSO only): ≥ 45%

## C#CCOc1ccc(OCC#C)cc1 [Compound 68]
  inhibition compared to a control (DMSO only): ≥ 45%

## C#CCOc1ccc(C(=O)N2CCOCC2)cc1 [Compound 74]
  inhibition compared to a control (DMSO only): ≥ 45%

## C#CCOc1cccc(C(O)C#C)c1 (stereo not shown) [Compound 71]
  inhibition compared to a control (DMSO only): ≥ 45%

## C#CCOc1ccc(Cl)cc1 [Compound 72]
  inhibition compared to a control (DMSO only): ≥ 45%

## C#CCOc1ccc(C#N)cc1 [Compound 113]
  inhibition compared to a control (DMSO only): ≥ 45%

## C#CCOc1cc(NC(=S)N(N)CCO)c(F)cc1Cl [Compound 79]
  inhibition compared to a control (DMSO only): ≥ 45%

## C#CCOc1ccc(NC(=O)N(C)C)cc1Cl [Compound 81]
  inhibition compared to a control (DMSO only): ≥ 45%
